Substitutions are numbered along the chain they refer to. No constants are given. Whether binding was seen depends on the method and setting. In cells and extracts the contact can be indirect. These calls come from enrichment with a bait or labelling near it, and not all partners need be listed. A no says only that the protein was not detected with the bait. Where a sequence is shown, tags or fusion partners need not be part of it.
Tests used:
Test in all cases: affinity purification with mass spectrometry; anti-HA monoclonal antibody covalently coupled to magnetic beads (Pierce Direct Magnetic IP/Co-IP Kit); 1 mg total lysate of human chondrocytes transfected with HA-tagged wild-type WISP3, p.Tyr109* or p.Cys114Trp; binding at room temperature; eluates analysed by label-free nanoLC-MS/MS (DIA); two biological replicates per condition
[1] = target: T1, WISP3 p.Tyr109* variant, HA-tagged (truncated product of about 14 kDa) (human) (UniProt O95389)
T1 sequence: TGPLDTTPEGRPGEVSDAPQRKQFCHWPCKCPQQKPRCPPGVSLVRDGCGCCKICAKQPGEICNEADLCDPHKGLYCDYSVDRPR

Amino acid sequences for entries named in this document (tags omitted).
UniProt Q07065: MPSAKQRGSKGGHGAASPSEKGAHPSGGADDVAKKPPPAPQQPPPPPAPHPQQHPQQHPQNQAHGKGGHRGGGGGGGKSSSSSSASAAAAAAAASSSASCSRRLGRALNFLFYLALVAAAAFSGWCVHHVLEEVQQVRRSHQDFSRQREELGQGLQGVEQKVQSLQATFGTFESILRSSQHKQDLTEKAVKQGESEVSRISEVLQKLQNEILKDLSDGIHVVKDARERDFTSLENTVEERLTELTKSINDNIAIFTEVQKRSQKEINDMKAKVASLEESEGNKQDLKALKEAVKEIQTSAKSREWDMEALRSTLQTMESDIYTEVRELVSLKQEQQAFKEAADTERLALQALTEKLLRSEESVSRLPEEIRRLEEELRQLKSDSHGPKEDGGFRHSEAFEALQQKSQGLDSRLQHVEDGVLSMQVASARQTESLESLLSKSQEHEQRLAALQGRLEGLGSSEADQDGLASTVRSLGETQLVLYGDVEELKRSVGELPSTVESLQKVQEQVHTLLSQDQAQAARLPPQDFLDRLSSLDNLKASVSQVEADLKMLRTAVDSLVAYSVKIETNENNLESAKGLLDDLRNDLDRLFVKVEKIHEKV
UniProt P04792: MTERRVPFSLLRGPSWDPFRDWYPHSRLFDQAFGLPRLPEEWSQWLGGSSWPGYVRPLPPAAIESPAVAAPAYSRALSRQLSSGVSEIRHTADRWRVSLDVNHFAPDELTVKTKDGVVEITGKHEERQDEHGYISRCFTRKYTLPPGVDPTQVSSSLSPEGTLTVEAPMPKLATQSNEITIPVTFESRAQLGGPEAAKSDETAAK
UniProt A5A3E0: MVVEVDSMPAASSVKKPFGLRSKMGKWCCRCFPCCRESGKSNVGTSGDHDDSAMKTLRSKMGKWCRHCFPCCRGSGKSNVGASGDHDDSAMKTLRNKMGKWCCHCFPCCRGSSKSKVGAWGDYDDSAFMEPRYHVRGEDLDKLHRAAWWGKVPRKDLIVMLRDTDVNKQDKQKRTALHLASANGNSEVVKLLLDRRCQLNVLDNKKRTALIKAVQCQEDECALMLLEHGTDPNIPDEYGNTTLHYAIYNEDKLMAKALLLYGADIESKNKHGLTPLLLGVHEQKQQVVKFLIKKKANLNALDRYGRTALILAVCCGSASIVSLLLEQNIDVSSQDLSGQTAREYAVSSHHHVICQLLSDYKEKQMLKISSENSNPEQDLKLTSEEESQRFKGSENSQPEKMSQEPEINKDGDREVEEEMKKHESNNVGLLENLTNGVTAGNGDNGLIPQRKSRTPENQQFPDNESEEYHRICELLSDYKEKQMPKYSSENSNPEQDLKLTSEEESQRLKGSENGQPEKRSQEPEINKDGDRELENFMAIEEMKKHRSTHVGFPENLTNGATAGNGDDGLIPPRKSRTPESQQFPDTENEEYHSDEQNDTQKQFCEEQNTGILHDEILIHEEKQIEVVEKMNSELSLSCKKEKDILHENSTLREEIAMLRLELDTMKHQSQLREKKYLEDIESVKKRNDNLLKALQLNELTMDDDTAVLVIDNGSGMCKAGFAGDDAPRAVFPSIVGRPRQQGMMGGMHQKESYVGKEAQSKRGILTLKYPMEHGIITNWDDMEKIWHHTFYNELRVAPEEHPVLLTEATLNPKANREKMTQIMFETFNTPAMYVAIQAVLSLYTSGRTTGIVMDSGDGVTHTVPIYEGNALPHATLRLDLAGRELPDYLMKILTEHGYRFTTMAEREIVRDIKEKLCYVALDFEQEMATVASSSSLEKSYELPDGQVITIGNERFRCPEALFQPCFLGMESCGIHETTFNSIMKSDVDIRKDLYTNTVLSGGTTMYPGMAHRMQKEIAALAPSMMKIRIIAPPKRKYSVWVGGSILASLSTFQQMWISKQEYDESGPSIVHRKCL
UniProt P0CG38: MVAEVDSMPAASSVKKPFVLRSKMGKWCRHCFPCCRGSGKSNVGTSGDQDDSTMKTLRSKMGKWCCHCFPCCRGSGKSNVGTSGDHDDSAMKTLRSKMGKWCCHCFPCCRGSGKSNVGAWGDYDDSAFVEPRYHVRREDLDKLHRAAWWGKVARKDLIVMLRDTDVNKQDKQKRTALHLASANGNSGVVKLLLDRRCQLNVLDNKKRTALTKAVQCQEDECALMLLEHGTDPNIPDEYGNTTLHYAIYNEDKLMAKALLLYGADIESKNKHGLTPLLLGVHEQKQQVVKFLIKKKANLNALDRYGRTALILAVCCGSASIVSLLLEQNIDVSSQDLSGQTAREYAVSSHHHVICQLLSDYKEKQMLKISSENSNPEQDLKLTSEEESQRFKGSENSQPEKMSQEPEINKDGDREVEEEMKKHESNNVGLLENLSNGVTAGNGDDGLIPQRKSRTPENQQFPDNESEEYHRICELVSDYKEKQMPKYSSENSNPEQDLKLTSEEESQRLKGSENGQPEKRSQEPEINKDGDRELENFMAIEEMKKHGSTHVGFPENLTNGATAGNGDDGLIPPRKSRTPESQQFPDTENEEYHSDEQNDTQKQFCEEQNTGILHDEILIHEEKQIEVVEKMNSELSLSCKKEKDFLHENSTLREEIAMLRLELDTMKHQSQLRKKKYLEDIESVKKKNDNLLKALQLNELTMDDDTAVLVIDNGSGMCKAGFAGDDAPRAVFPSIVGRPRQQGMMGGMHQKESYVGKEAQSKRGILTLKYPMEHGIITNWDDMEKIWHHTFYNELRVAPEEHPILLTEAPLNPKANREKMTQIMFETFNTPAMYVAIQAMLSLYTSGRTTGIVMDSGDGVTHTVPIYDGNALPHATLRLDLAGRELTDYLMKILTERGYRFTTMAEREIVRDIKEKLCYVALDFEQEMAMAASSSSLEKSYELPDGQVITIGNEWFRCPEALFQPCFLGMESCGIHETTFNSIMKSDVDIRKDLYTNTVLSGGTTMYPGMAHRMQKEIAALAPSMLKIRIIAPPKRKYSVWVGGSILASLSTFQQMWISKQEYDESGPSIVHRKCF
UniProt Q13885: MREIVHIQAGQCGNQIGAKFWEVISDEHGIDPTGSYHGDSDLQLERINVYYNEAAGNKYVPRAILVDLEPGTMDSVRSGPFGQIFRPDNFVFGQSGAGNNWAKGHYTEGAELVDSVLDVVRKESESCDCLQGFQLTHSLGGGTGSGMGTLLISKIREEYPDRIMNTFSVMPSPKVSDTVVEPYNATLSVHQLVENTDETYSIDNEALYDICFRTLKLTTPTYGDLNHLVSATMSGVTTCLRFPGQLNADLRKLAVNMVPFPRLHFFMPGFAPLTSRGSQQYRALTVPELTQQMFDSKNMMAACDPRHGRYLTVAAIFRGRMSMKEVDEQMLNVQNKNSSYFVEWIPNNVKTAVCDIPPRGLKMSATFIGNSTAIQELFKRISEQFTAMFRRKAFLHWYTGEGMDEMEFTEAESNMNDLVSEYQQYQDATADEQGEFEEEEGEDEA
UniProt P17844: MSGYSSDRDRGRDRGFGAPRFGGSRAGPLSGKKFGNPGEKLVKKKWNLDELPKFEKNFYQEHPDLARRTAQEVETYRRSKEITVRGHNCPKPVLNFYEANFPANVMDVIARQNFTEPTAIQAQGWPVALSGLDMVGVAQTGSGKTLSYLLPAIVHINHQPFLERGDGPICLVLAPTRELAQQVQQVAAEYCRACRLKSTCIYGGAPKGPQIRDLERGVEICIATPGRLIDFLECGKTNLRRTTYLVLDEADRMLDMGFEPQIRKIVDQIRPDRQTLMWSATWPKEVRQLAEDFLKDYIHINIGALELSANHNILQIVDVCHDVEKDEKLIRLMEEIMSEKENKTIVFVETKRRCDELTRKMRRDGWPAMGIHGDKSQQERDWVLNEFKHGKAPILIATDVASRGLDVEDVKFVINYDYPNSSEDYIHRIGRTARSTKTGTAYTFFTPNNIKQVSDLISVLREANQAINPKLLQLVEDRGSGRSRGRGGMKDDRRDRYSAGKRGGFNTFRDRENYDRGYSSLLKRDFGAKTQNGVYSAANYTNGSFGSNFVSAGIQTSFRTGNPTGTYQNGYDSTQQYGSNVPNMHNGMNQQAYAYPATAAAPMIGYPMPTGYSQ
UniProt Q92841: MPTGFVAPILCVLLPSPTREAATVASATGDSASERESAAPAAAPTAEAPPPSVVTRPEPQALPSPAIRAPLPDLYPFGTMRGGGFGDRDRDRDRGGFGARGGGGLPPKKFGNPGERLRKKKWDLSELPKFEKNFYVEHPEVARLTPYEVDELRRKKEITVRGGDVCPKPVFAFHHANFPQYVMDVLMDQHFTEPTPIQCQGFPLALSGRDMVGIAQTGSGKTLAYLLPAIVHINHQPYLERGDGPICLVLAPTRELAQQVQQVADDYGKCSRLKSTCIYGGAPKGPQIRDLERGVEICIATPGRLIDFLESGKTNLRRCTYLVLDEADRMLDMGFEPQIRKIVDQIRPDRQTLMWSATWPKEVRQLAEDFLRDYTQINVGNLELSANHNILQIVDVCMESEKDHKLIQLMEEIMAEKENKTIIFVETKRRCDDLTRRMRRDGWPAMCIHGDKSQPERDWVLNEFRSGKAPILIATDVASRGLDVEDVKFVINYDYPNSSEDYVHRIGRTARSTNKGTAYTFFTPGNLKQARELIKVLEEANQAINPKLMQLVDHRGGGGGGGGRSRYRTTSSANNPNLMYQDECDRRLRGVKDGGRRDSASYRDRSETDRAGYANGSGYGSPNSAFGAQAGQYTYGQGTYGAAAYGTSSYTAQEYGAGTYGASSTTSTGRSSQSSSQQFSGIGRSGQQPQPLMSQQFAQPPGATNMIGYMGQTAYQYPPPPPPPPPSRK
UniProt Q9UHB6: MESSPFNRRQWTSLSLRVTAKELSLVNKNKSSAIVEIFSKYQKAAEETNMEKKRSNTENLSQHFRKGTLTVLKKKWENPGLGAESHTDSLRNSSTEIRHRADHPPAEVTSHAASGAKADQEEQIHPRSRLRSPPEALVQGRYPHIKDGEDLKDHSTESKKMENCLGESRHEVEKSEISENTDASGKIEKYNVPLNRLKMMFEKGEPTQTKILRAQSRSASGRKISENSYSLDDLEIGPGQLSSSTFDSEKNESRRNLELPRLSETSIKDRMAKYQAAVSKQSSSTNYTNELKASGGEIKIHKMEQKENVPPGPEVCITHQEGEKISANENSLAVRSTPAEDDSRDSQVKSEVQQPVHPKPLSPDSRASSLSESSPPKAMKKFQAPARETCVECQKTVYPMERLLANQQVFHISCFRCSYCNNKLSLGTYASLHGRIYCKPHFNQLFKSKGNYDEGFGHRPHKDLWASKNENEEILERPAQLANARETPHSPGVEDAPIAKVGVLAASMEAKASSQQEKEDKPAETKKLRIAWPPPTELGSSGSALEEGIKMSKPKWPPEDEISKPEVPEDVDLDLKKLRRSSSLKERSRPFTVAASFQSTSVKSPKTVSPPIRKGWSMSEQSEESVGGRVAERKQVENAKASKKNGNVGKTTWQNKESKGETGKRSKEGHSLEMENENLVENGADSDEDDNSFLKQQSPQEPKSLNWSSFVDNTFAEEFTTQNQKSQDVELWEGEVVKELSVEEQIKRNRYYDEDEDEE
UniProt Q9BVA1: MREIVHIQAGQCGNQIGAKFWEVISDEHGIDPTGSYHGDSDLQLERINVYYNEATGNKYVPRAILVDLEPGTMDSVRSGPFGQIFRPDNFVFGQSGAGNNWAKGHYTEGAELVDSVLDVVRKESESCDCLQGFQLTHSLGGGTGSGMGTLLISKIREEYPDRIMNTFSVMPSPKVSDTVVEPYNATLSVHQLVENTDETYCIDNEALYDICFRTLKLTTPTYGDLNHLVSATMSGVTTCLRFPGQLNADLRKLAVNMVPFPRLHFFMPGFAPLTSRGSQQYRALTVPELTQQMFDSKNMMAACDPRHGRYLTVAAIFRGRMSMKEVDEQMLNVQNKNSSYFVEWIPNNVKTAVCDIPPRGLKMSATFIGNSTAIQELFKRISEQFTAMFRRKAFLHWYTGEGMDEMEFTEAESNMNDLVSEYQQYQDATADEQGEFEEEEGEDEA

[2] = target: T2, WNT1-inducible signaling pathway protein 3 (WISP3), wild-type, HA-tagged (human) (UniProt O95389)
T2 sequence: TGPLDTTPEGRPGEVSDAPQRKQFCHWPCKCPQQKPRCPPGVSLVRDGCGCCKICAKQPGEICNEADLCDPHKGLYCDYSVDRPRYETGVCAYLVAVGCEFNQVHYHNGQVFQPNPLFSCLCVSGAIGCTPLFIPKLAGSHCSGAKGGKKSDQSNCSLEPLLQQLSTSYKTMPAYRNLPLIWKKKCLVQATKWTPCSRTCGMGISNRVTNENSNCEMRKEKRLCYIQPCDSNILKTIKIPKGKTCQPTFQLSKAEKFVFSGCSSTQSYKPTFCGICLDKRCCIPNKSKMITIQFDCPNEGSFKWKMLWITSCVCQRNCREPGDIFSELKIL

[3] = target: T3, WISP3 p.Cys114Trp variant, HA-tagged (human) (UniProt O95389)
T3 sequence: T2 sequence with C91W

binding [1] | binding [2] | binding [3] | Substance
binds | binds | binds | ACTBM (from UniProt Q9BYX7 1-375)
 | binds | binds | CKAP4 (from UniProt Q07065 1-602)
 |  | binds | HSPB1 (from UniProt P04792 1-205)
binds | binds | binds | POTEF (from UniProt A5A3E0 1-1075)
binds | binds | binds | POTEI (from UniProt P0CG38 1-1075)
binds | binds | binds | TUBB1A (human (endogenous in human chondrocytes))
binds | binds | binds | TUBB2A (from UniProt Q13885 1-445)

Continued, substance first:

Substance | binding [1] | binding [2] | binding [3]
DDX5 (from UniProt P17844 1-614) | no binding | no binding | binds
DDX17 (from UniProt Q92841 1-729) | no binding | no binding | binds
LIMA1 (from UniProt Q9UHB6 1-759) | no binding | binds | no binding
TUBB2B (from UniProt Q9BVA1 1-445) | binds | binds | binds
